Reference: ChEMBL document CHEMBL5500373, “Lead optimization based design, synthesis, and pharmacological evaluation of quinazoline derivatives as multi-targeting agents for Alzheimer's disease treatment” (Eur J Med Chem, 2024)

Assay: in vitro
Details: PAMPA

Q: Which Papp at 18 h, 25 ug/ml does the source give for `COc1cc2c(cc1OC)C(=O)C(CC1CCN(Cc3ccccc3)CC1)C2` (stereo unspecified) [DONEPEZIL] here?
A: 6.53 ×10⁻⁶ cm/s
